Source: doi:10.1101/720508
Results are given in words; binding and its absence hold for the method and conditions named. Binding seen in cells or lysates may run through a third protein. These calls come from enrichment with a bait or labelling near it, and not all partners need be listed.

Target: T1, GPR151 (mouse (endogenous in IPN)) (UniProt Q7TSN6)
T1 sequence: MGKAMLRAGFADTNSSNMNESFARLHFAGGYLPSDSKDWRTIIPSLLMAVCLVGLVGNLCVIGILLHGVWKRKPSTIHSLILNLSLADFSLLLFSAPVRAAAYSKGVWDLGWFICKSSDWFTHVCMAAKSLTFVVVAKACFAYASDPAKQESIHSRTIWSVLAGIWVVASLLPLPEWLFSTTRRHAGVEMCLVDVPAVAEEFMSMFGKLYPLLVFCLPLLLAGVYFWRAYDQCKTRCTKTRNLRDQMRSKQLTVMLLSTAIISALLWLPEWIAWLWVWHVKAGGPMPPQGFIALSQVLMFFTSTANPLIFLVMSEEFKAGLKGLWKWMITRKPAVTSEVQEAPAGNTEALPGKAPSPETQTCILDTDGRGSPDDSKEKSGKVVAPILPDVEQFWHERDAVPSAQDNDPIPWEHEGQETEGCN
Test: affinity purification with mass spectrometry

binding: binds
Substance: AT1A2 (sodium/potassium ATPase catalytic α-subunit) (from UniProt Q6PIE5 1-1020)
